Source: PubChem BioAssay AID1259405 (NCATS, 2018)
The deposit covers about 50,000 reagents; shown is a part drawn at random. About 4,000 of them (8%) count as active. 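Mouse siRNA library applied to hamster cells; one well for each siRNA.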 The numbers tell different reagents against one gene apart. No sequences are given here.

- Test: 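Knock-downs that lift recombinant protein yield in hamster ovary cells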 (primary screen)
- System: Chinese hamster CHO-K1 ovary cells with stable secreted eGFP expression
- Reagents: single siRNA against mouse genes, 0.8 pmol siRNA per well (2 µl of 400 nM stock)
- Timing: 3 days
- Measured: 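Percent of the per-plate non-targeting control median for intracellular GFP per well by laser scanning cytometry and for cell viability by ATP luminescence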
- Direction: GFP, % of control: higher = more GFP per well, higher productivity; viability (ATP), % of control: higher = more viable cells (more ATP)
- Call rule: 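Called active when intracellular GFP, relative to negative control, is at or above 120%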

Atp7a (ATPase, copper transporting, alpha polypeptide) #1
- GFP, % of control: 146
- viability (ATP), % of control: 70.5
- activity call: active

Atp7a (ATPase, copper transporting, alpha polypeptide) #2
- GFP, % of control: 106
- viability (ATP), % of control: 86.9
- activity call: inactive

Atp7a (ATPase, copper transporting, alpha polypeptide) #3
- GFP, % of control: 51.1
- viability (ATP), % of control: 65.5
- activity call: inactive

Pnma8a (PNMA family member 8A) #1
- GFP, % of control: 106
- viability (ATP), % of control: 68.3
- activity call: inactive

Pnma8a (PNMA family member 8A) #2
- GFP, % of control: 76
- viability (ATP), % of control: 77.3
- activity call: inactive

Pnma8a (PNMA family member 8A) #3
- GFP, % of control: 94.4
- viability (ATP), % of control: 109
- activity call: inactive

Dlgap2 (DLG associated protein 2) #1
- GFP, % of control: 73.9
- viability (ATP), % of control: 53.7
- activity call: inactive

Dlgap2 (DLG associated protein 2) #2
- GFP, % of control: 129
- viability (ATP), % of control: 78.2
- activity call: active

Aff2 (AF4/FMR2 family, member 2) #1
- GFP, % of control: 28.8
- viability (ATP), % of control: 44.9
- activity call: inactive

Aff2 (AF4/FMR2 family, member 2) #2
- GFP, % of control: 53.2
- viability (ATP), % of control: 65.1
- activity call: inactive

Aff2 (AF4/FMR2 family, member 2) #3
- GFP, % of control: 89.8
- viability (ATP), % of control: 95
- activity call: inactive

Gsx2 (GS homeobox 2) #1
- GFP, % of control: 74.9
- viability (ATP), % of control: 81.9
- activity call: inactive

Gsx2 (GS homeobox 2) #2
- GFP, % of control: 76.7
- viability (ATP), % of control: 54.2
- activity call: inactive

Gsx2 (GS homeobox 2) #3
- GFP, % of control: 89
- viability (ATP), % of control: 84.1
- activity call: inactive

Mus81 (MUS81 structure-specific endonuclease subunit) #1
- GFP, % of control: 57.4
- viability (ATP), % of control: 68.7
- activity call: inactive

Mus81 (MUS81 structure-specific endonuclease subunit) #2
- GFP, % of control: 168
- viability (ATP), % of control: 55.5
- activity call: active

Mus81 (MUS81 structure-specific endonuclease subunit) #3
- GFP, % of control: 58.7
- viability (ATP), % of control: 68.9
- activity call: inactive

Mus81 (MUS81 structure-specific endonuclease subunit) #4
- GFP, % of control: 91.8
- viability (ATP), % of control: 99.8
- activity call: inactive

Mus81 (MUS81 structure-specific endonuclease subunit) #5
- GFP, % of control: 120
- viability (ATP), % of control: 70.4
- activity call: active

Mus81 (MUS81 structure-specific endonuclease subunit) #6
- GFP, % of control: 85.3
- viability (ATP), % of control: 78.7
- activity call: inactive

Alyref2 (Aly/REF export factor 2) #1
- GFP, % of control: 88.9
- viability (ATP), % of control: 46.8
- activity call: inactive

Alyref2 (Aly/REF export factor 2) #2
- GFP, % of control: 94.1
- viability (ATP), % of control: 92.5
- activity call: inactive

Alyref2 (Aly/REF export factor 2) #3
- GFP, % of control: 31.8
- viability (ATP), % of control: 33.5
- activity call: inactive

Or5d36 (olfactory receptor family 5 subfamily D member 36) #1
- GFP, % of control: 49.2
- viability (ATP), % of control: 41.2
- activity call: inactive

Or5d36 (olfactory receptor family 5 subfamily D member 36) #2
- GFP, % of control: 108
- viability (ATP), % of control: 96.8
- activity call: inactive

Or5d36 (olfactory receptor family 5 subfamily D member 36) #3
- GFP, % of control: 55.6
- viability (ATP), % of control: 55.5
- activity call: inactive

Or52m2 (olfactory receptor family 52 subfamily M member 2) #1
- GFP, % of control: 64.8
- viability (ATP), % of control: 70.7
- activity call: inactive

Or52m2 (olfactory receptor family 52 subfamily M member 2) #2
- GFP, % of control: 85.5
- viability (ATP), % of control: 81.8
- activity call: inactive

Or52m2 (olfactory receptor family 52 subfamily M member 2) #3
- GFP, % of control: 69.4
- viability (ATP), % of control: 108
- activity call: inactive

Drosha (drosha, ribonuclease type III) #1
- GFP, % of control: 117
- viability (ATP), % of control: 94.9
- activity call: inactive

Drosha (drosha, ribonuclease type III) #2
- GFP, % of control: 99.3
- viability (ATP), % of control: 85.1
- activity call: inactive

Drosha (drosha, ribonuclease type III) #3
- GFP, % of control: 70.8
- viability (ATP), % of control: 77.5
- activity call: inactive

Cdcp1 (CUB domain containing protein 1) #1
- GFP, % of control: 84.6
- viability (ATP), % of control: 101
- activity call: inactive

Cdcp1 (CUB domain containing protein 1) #2
- GFP, % of control: 79.7
- viability (ATP), % of control: 36.9
- activity call: inactive

Cdcp1 (CUB domain containing protein 1) #3
- GFP, % of control: 59
- viability (ATP), % of control: 66.3
- activity call: inactive

Plxna3 (plexin A3)
- GFP, % of control: 108
- viability (ATP), % of control: 106
- activity call: inactive

Cat (catalase) #1
- GFP, % of control: 109
- viability (ATP), % of control: 114
- activity call: inactive

Cat (catalase) #2
- GFP, % of control: 39
- viability (ATP), % of control: 88
- activity call: inactive

Cat (catalase) #3
- GFP, % of control: 67.8
- viability (ATP), % of control: 71.7
- activity call: inactive

Arhgap17 (Rho GTPase activating protein 17) #1
- GFP, % of control: 62.2
- viability (ATP), % of control: 61.4
- activity call: inactive

Arhgap17 (Rho GTPase activating protein 17) #2
- GFP, % of control: 73.7
- viability (ATP), % of control: 84.3
- activity call: inactive

Arhgap17 (Rho GTPase activating protein 17) #3
- GFP, % of control: 22.7
- viability (ATP), % of control: 19.6
- activity call: inactive
